These are yes or no findings as the source states them, for the method shown. A result given as binding can be weak or reduced; the word gives no strength.

The chains are these.
B1: 1730C02 (antibody, V domains shown)
VH: EVQLVESGGGLVQLGGSLRLSCAASGLTFNNYAMSWVRQAPGKGLEWVSTISGSGGSTYYADSAKGRFTISRDNSKNTLYLQMNSLRAEDTAVYYCAKGGLLYFGEFHFDYWGQGTLVTVSS
VL: DIQMTQSPSSLSASVGDRVTIICRASQGISNYLAWFQQKPGKAPKSLIYAASSLQSGVPSKFSGSGSGTDFTLTISSLQPEDFATYYCQHYNSYPLTFGGGTKVEIK
B2: 1734F05 (antibody, V domains shown)
VH: EVQLVESGGGLVQPGGSLRLSCAASGFTFSRYAMSWVRQAPGKGLEWVSSISASGATTFYADPVKGRFTISRDNSKKTLYLQMNSLRAEDTAVYYCAKDQDFDILTGYLNWFDPWGQGTLVTVSS
VL: EIVLTQSPATLSLSPGERVILSCRVSQSVSSYLAWYQQKPGQAPRLLIYDTSNRATGIPARFSGSGSGTDFTLTISSLEPEDFAVYYCQQRRNWPLTFGGGTKVEIK
B3: 1741G09 (antibody, V domains shown)
VH: EVQLVESGGGLVKPGGSLRLSCAASGFSFSVAWMSWVRQAPGKGLEWVGRIKRKTDGGTTDYAAPVKGRFIISRDDSIKALYLQMNSLKTEDTAVYYCTTDPLLRYSDWLSHSLMGDVWGQGTTVTVSS
VL: DIQMTQSPSSLSASVGDRVAITCRTSQNINNYLNWYQQKPGKAPKPLIYAASSLQSGVPSRFSGSGSGTDFTLTISTLHPEDFATYYCQQTYSIPLTFGGGTKVEIK

For one experiment, the target named is Cynomolgus monkey (Macaca fascicularis) CD7 protein (soluble) (cynomolgus monkey (Macaca fascicularis)). In words: SPR, soluble CD7.
In the case of B1, the binding result is given as “binds”.

As to B2, the binding entry is on record as “binds”.

As for B3, the binding result is given as “binds”.

The next experiment has the same target. Kind of experiment: SPR, mAb captured, single concentration of cynomolgus CD7 protein as analyte (concentration not given).
As to B1, the binding entry is “binds”.

For B2, the binding result is “binds”.

On to B3, for which the binding entry is “binds”.

A further experiment has the same target. Kind of experiment: SPR. A general note: In SPR one partner is held on a chip, and binding of the other changes the refractive index at the surface.
B1: the binding result is given as “binds”.

For the molecule B2, the binding result is “binds”.

For B3, the binding result was “binds”.

The values are drawn from patent US20260098089A1.
